## Microarray screen: hit calls

From ROBIN, a set of small-molecule microarray screens (doi:10.1002/anie.202211358).

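Compounds were printed on reactive glass slides in duplicate spots, a dye-labelled oligonucleotide was laid over them, and the fluorescence left after washing was read. For the PreQ1, TPP and SAM-II riboswitches the laboratory earlier reported (doi:10.1038/s41467-019-09493-3) 1 µM RNA, 2 h, and a rule that included a mean Z-score above 3 (spot signal-to-noise against the whole library), a score well above that on a control array, and duplicate spots agreeing (coefficient of variation under 100). The data file gives only the calls; its cut-offs may differ, and compounds hitting several targets are kept. These are primary screening calls, not affinities; a compound without a hit may have attached poorly or may still bind in solution.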 Key: hit = hit, none = tested without a hit. This is an unselected part of the compounds tested. A dash means that no call is listed here.

Targets (5′ to 3′):
TPP: TPP riboswitch RNA three-way junction, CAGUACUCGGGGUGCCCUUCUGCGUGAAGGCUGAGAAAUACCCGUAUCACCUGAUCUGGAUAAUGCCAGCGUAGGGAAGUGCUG. Hit rate about 0.7% of about 24,000 compounds.
PreQ1: PreQ1 riboswitch RNA pseudoknot, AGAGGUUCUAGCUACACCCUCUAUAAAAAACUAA. From B. subtilis. Hit rate about 0.7% of about 24,000 compounds.
SAM-II: SAM-II riboswitch RNA pseudoknot, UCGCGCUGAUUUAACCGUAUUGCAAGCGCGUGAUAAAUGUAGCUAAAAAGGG. Hit rate about 1% of about 21,000 compounds.

compound,TPP,PreQ1,SAM-II
CC(=O)CNC(C)(C)C(C)=O,none,none,none
Cc1ccc(NC(c2ccccc2)c2nnc(-c3ccccc3)o2)cc1 (stereo not given),none,none,none
CC1(C)Cc2c(sc3nc(SCc4ccc(Cl)cc4)nc(N)c23)CO1,none,none,none
Cc1cc(F)ccc1CC(=O)N1CCNCC1C(=O)Nc1ccc(F)cc1 (stereo not given),none,none,none
CC(C)n1cnc2c(NCCc3ccc(O)cc3)nc(-c3csc4ccccc34)nc21,none,none,none
Cc1ccc(Cc2ccccc2C(=O)N2C[C@H](CO)C[C@H](CN(C)C)C2)cc1,none,none,none
O=C(Nc1cccc(Cl)c1)c1nccnc1CO,none,none,none
O=S(=O)(c1ccc2nc(NC3CCCCC3)cnc2c1)N1CCCCC1,none,none,none
CCOC(=O)C1CCCN(Cc2oc(CO)cc(=O)c2O)C1 (stereo not given),none,none,none
C=CCC(N)(CC=C)c1ccc(C(N)(CC=C)CC=C)cc1,none,none,none
c1ccc2c(c1)CC(NC1CCOC3(CCOCC3)C1)C2 (stereo not given),none,none,none
Nc1nnc(SCC(=O)Nc2ccc(-c3nc4cc(NC(=O)CSc5nnc(N)s5)ccc4o3)cc2)s1,none,none,none
OC[C@H]1O[C@@H](n2cnc3c2NC=NC[C@@H]3O)C[C@H]1O,none,none,none
Cc1ccc2nc(NCc3ccc(F)cc3Cl)c(-c3noc(C)n3)cc2c1,none,none,-
O=C(Oc1ccc(NC2=NS(=O)(=O)c3ccccc32)cc1)c1ccccc1,none,none,none
N=C1SC(=Cc2ccc(-c3ccc4c(c3)C(=O)NC4=O)o2)C(=O)N1c1ccc(Br)cc1,none,none,none
CC(C)CNc1oc(-c2ccc(F)cc2)nc1S(=O)(=O)c1ccccc1,none,none,-
Cc1nnc2c(NCCCN3CCN(c4ccccc4F)CC3)nc3ccccc3n12,none,none,-
CCOc1ccc(CNc2ncc(-c3ccc(OC)cc3)n2C)cc1,none,none,none
CC1=CC(O)C(O)C2(C)C1CC1OC(=O)C(O)C3C(C)C(O)C4(O)OCC13C42 (stereo not given),none,none,none
O=C(O)C1CN(c2ccc(-c3ccccc3)nn2)CCN1 (stereo not given),none,none,none
Cc1ccc2nc(-c3cccnc3)c(Nc3ccccc3C)n2c1,none,none,none
N#CC1=C(N)Oc2[nH]nc(-c3cccnc3)c2C12C(=O)Nc1ccccc12 (stereo not given),none,none,none
Cc1ccc(-c2nc3ccc(Cl)cn3c2Nc2ccc3c(c2)OCCO3)o1,none,none,none
N#Cc1c(N)oc(-c2ccccc2)c1-c1ccccc1,none,none,none
CNc1nc(N(C)C)nc(-n2cnc(SCCOc3ccccc3)n2)n1,none,none,-
Cc1ccn2c(NC3CCCC3)c(-c3ccsc3)nc2c1,none,none,none
CCOC(=O)C1=C(N)Oc2cc(O)ccc2C1c1ccc(Br)cc1 (stereo not given),none,none,none
CCCN1C(=O)C2(c3ccccc31)c1c(oc3ccccc3c1=O)C(=O)N2CCO (stereo not given),none,none,-
CCn1c(CN(C)C)nnc1C1CCN(C(=O)c2cc(N)[nH]n2)CC1,none,none,none
Cc1nc2nc(CN)nn2c(C)c1CCC(=O)Nc1ccc(Br)cc1F,none,none,-
c1ccc(-c2cc(NC3CCCC3)n3nc(-c4cccnc4)nc3n2)cc1,none,none,-
Cn1c(=O)[nH]c(=O)c2c1nc1n(CCCO)c(-c3ccccc3)cn21,none,none,none
Cc1ccc(Nc2cc(N3CCN(C(=O)c4ccc(Br)cc4)CC3)ncn2)cc1,none,none,-
CCC(=O)N1CCN(c2ccc(Nc3cc(C)nc4nc(-c5ccccc5)nn34)cc2Cl)CC1,none,none,none
CCc1ccc(CNc2ccc3c(c2)ncn3C(C)C)cc1,none,none,none
COc1ccccc1-c1cc2nc(C)cc(NCCN3CCOCC3)n2n1,none,none,-
Cc1nc(-c2ccccc2Cl)sc1C(=O)NCC(O)c1ccccc1 (stereo not given),none,none,none
CCCc1nc(-c2cc3cccc(C)c3nc2NCc2cccc(OC)c2OC)no1,none,none,-
Cn1c2c(c(=O)n(C)c1=O)C1(C(=O)N(Cc3ccccc3Cl)c3ccccc31)C(C#N)=C(N)O2 (stereo not given),none,none,none
CCOC(=O)c1cccc(Nc2c(C(=O)OCC)cnc3ccc(C(=O)OC)cc23)c1,none,none,none
Nc1ccc(Br)cc1C(=O)O,none,none,none
COCCOc1ccc([NH3+])cc1,none,none,none
O=C(N[C@@H]1CCN(C(=O)c2ccc3c(c2)OCO3)C[C@H]1O)c1cnccn1,none,none,none
COCC(C)(C)CNC(=O)[C@]12CC[C@](C)([C@@H](O)C1)C2(C)C,none,none,none
Cc1cccc2c1nc(CO)n2-c1cc(C(=O)O)cc(S(=O)(=O)NC(C)C)c1,none,none,none
CCOC(=O)N1CCC2(CC1)C(C#N)=C(N)Oc1n[nH]c(C)c12,none,none,none
CCn1nc(CO)c2c1CCN(C(=O)C1CCOc3ccccc3C1)C2 (stereo not given),none,none,none
O=C(CCc1nc2ccccc2[nH]1)N1[C@H]2CCNC[C@@H]1CC2,none,none,none
O=C(c1cccnc1NCc1ccc(Cl)cc1)N1CCOCC1,none,none,none
CCc1ccc(C2C(C#N)=C(N)OC3=C2S(=O)(=O)N(Cc2ccc(F)cc2)c2ccccc23)cc1 (stereo not given),none,none,-
CN(C)C(=O)c1ccc(Cn2ncc(N3CCC(CN)C3)cc2=O)o1 (stereo not given),none,none,none
CC(C)(C)c1nnc(N)s1,none,none,none
Cc1ccc(-c2cc(Nc3ccccc3F)nc(C)n2)cc1,none,none,-
CC(C)c1ccc(Cn2ccc3c4c(N)nc(NC5CC5)nc4ccc32)cc1,none,none,none
Cc1ccc(NC(=O)N2CCCN(C(=O)c3nonc3N)CC2)cc1Cl,none,none,-
COc1ccc(-c2cc(N)n(S(=O)(=O)c3ccc(OC)cc3)n2)cc1,none,none,none
Cc1cccc2c(-c3cccc(CCN)c3)c[nH]c12,none,none,none
COc1ccccc1CCNC(=O)c1ccc(C2CCCNC2)cc1 (stereo not given),none,none,none
CC(c1ccc(C(=O)NC(C)(C)c2nnc(N)s2)o1)N1CCCCC1 (stereo not given),none,none,none
CCn1ccnc1CN(C)C(C(=O)O)c1ccc(CO)cc1 (stereo not given),none,none,none
Brc1ccc(-c2csc(/N=c3\[nH]c(-c4ccc(Br)cc4)cs3)n2)cc1,hit,none,hit
C=C(C)Cn1c(C(O)CC)nc2ccccc21 (stereo not given),none,none,-

Repeated from the top, 7 entries:

| compound | TPP | PreQ1 | SAM-II |
|---|---|---|---|
| `CC(=O)CNC(C)(C)C(C)=O` | none | none | none |
| `Cc1ccc(NC(c2ccccc2)c2nnc(-c3ccccc3)o2)cc1` (stereo not given) | none | none | none |
| `CC1(C)Cc2c(sc3nc(SCc4ccc(Cl)cc4)nc(N)c23)CO1` | none | none | none |
| `Cc1cc(F)ccc1CC(=O)N1CCNCC1C(=O)Nc1ccc(F)cc1` (stereo not given) | none | none | none |
| `CC(C)n1cnc2c(NCCc3ccc(O)cc3)nc(-c3csc4ccccc34)nc21` | none | none | none |
| `Cc1ccc(Cc2ccccc2C(=O)N2C[C@H](CO)C[C@H](CN(C)C)C2)cc1` | none | none | none |
| `O=C(Nc1cccc(Cl)c1)c1nccnc1CO` | none | none | none |